In article doi:10.1101/2025.09.24.678297 one finds binding data, which are given here for 6 molecules.

For assay [1], the target named is T1, Pil1-Ste4-mCherry (WT) (S. pombe) (UniProt P36622).
T1 sequence: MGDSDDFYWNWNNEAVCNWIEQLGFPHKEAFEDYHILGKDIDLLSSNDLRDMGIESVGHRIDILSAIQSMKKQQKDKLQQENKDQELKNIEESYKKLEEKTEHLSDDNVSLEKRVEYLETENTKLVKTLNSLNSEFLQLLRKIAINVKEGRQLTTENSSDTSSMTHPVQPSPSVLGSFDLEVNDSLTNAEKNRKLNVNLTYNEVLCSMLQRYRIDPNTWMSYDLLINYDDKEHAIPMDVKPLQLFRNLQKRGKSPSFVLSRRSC
In words: Pil1 co-recruitment assay.

Assay [2] concerns the target Sms1-sfGFP (expressed under nmt41 promoter) (S. pombe). In words: co-IP.
Assay [3] concerns the target Sms1 arrestin domain-sfGFP (S. pombe). In words: co-IP.
Assay [4] has as its target Pil1-Ste4^ΔRA-mCherry (S. pombe). In words: Pil1 co-recruitment assay.

No constants are given. Whether binding was seen depends on the method and setting. A result given as binding can be weak or reduced; the word gives no strength. For some of these results: Where a sequence is shown, tags or fusion partners need not be part of it. For some of these results: In cells and extracts the contact can be indirect.

As for Sms1^ΔSBD-sfGFP (S. pombe), the binding result in assay [1] is “no binding”.

As to “Sms1-sfGFP (expressed under nmt41 promoter) (S. pombe)”, in assay [1], the binding result is recorded as “binds”.

B1: Gpa1-3xFLAG-mCherry (WT) (protein, UniProt P27584 1-407)
chain: MGCMSSKYADTSGGEVIQKKLSDTQTSNSSTTGSQNARVPVLENWLNIVLRGKPQNVESSGVRVKGNSTSGGNDIKVLLLGAGDSGKTTIMKQMRLLYSPGFSQVVRKQYRVMIFENIISSLCLLLEAMDNSNVSLLPENEKYRAVILRKHTSQPNEPFSPEIYEAVHALTLDTKLRTVQSCGTNLSLLDNFYYYQDHIDRIFDPQYIPSDQDILHCRIKTTGISEETFLLNRHHYRFFDVGGQRSERRKWIHCFENVTALLFLVSLAGYDQCLVEDNSGNQMQEALLLWDSICNSSWFSESAMILFLNKLDLFKRKVHISPIQKHFPDYQEVGSTPTFVQTQCPLADNAVRSGMYYFYLKFESLNRIASRSCYCHFTTATDTSLLQRVMVSVQDTIMSNNLQSLMF
Turning to B1, the binding entry in assay [2] and in assay [3] was “binds” throughout.

B2: Gpa1^Q244L-3xFLAG-mCherry (GTP-locked) (protein, UniProt P27584 1-407)
chain: MGCMSSKYADTSGGEVIQKKLSDTQTSNSSTTGSQNARVPVLENWLNIVLRGKPQNVESSGVRVKGNSTSGGNDIKVLLLGAGDSGKTTIMKQMRLLYSPGFSQVVRKQYRVMIFENIISSLCLLLEAMDNSNVSLLPENEKYRAVILRKHTSQPNEPFSPEIYEAVHALTLDTKLRTVQSCGTNLSLLDNFYYYQDHIDRIFDPQYIPSDQDILHCRIKTTGISEETFLLNRHHYRFFDVGGLRSERRKWIHCFENVTALLFLVSLAGYDQCLVEDNSGNQMQEALLLWDSICNSSWFSESAMILFLNKLDLFKRKVHISPIQKHFPDYQEVGSTPTFVQTQCPLADNAVRSGMYYFYLKFESLNRIASRSCYCHFTTATDTSLLQRVMVSVQDTIMSNNLQSLMF
For B2, the binding entry in assay [2] was “binds”.

B3: Ste4-3xFLAG-mCherry (protein, UniProt P36622 1-264)
chain: MGDSDDFYWNWNNEAVCNWIEQLGFPHKEAFEDYHILGKDIDLLSSNDLRDMGIESVGHRIDILSAIQSMKKQQKDKLQQENKDQELKNIEESYKKLEEKTEHLSDDNVSLEKRVEYLETENTKLVKTLNSLNSEFLQLLRKIAINVKEGRQLTTENSSDTSSMTHPVQPSPSVLGSFDLEVNDSLTNAEKNRKLNVNLTYNEVLCSMLQRYRIDPNTWMSYDLLINYDDKEHAIPMDVKPLQLFRNLQKRGKSPSFVLSRRSC
With B3, the binding entry in assay [2] was “binds”.

B4: Byr2-GFP (WT) (enzyme, UniProt P28829 1-659)
chain: MEYYTSKEVAEWLKSIGLEKYIEQFSQNNIEGRHLNHLTLPLLKDLGIENTAKGKQFLKQRDYLREFPRPCILRFIACNGQTRAVQSRGDYQKTLAIALKKFSLEDASKFIVCVSQSSRIKLITEEEFKQICFNSSSPERDRLIIVPKEKPCPSFEDLRRSWEIELAQPAALSSQSSLSPKLSSVLPTSTQKRSVRSNNAKPFESYQRPPSELINSRISDFFPDHQPKLLEKTISNSLRRNLSIRTSQGHNLGNFGQEILPRSSRRARPSELVCPLSSLRISVAEDVNRLPRIDRGFDPPLTVSSTQRISRPPSLQKSITMVGVEPLYQSNGNEKSSKYNVFSESAHGNHQVLSFSPGSSPSFIEQPSPISPTSTTSEDTNTLEEDTDDQSIKWIRGALIGSGSFGQVYLGMNASSGELMAVKQVILDSVSESKDRHAKLLDALAGEIALLQELSHEHIVQYLGSNLNSDHLNIFLEYVPGGSVAGLLTMYGSFEETLVKNFIKQTLKGLEYLHSRGIVHRDIKGANILVDNKGKIKISDFGISKKLELNSTSTKTGGARPSFQGSSFWMAPEVVKQTMHTEKTDIWSLGCLVIEMLTSKHPYPNCDQMQAIFRIGENILPEFPSNISSSAIDFLEKTFAIDCNLRPTASELLSHPFVS
On to B4, for which, in assay [4], the binding entry was “binds”.
